Measurements reported in PubChem BioAssay AID1259267 (Sanger Institute, 2017).

Screen: 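Kinase and colorectal-mutated gene knock-downs lethal to GP5D cells alone or with drugs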 (primary screen)
Cells: human GP5D colorectal cancer cells
Knock-down reagent: siRNA pool against human genes
Challenge: anchor drugs at low dose: BYL719 1 µM, cetuximab 5 µg/ml, trametinib 10 nM, or DMSO vehicle
Read-out: 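Viability against non-targeting pool, replicate mean: robust z-score for knock-down alone, fraction with DMSO, synergy with BYL719 1 µM, cetuximab 5 µg/ml, trametinib 10 nM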
Reading the numbers: robust z-score, knock-down alone: higher = more viable cells
Rule for the call: 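a robust z-score below -3 for the knock-down by itself makes a gene active, i.e. essential alone; synergy scores are ignored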
Calls: active = essential alone; inactive = not essential
The deposit covers 794 reagents; below is a part drawn at random. 9 of all reagents (1.1%) count as active. 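Viability capped at 1; calls reflect loss of viability from knock-down alone, not synergy with drugs.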 Not all columns of the deposit are shown. Not stated in the record: the amount of reagent, the time to read-out.

For TAOK3, what was measured?
robust z-score, knock-down alone: 0.514; activity call: inactive

What did the screen give for NEK6?
robust z-score, knock-down alone: 0.817; activity call: inactive

What did the screen give for AKT2?
robust z-score, knock-down alone: 0.817; activity call: inactive

With MAP3K7, how do the results read?
robust z-score, knock-down alone: -1.42; activity call: inactive

What is on record for BRD3?
robust z-score, knock-down alone: 0.803; activity call: inactive

What is on record for PIM1?
robust z-score, knock-down alone: -0.257; activity call: inactive

For PRKCQ, what was measured?
robust z-score, knock-down alone: 0.301; activity call: inactive

For CAMK2N1, what does the deposit list?
robust z-score, knock-down alone: -3.38; activity call: active

Which result is listed for CSF1R?
robust z-score, knock-down alone: -0.779; activity call: inactive

Which result is listed for CDKL4?
robust z-score, knock-down alone: -0.654; activity call: inactive

With PAK5, how do the results read?
robust z-score, knock-down alone: 0.817; activity call: inactive

What did the screen give for PRKCZ?
robust z-score, knock-down alone: 0.271; activity call: inactive

How did the screen score PRKAR2B?
robust z-score, knock-down alone: 0.251; activity call: inactive

3 entries already listed, arranged by “robust z-score, knock-down alone”, descending:
NEK6 — robust z-score, knock-down alone: 0.817; activity call: inactive
AKT2 — robust z-score, knock-down alone: 0.817; activity call: inactive
MAP3K7 — robust z-score, knock-down alone: -1.42; activity call: inactive

Next results follow:
For TESK2, what was measured?
robust z-score, knock-down alone: 0.817; activity call: inactive

For CDKL1, what does the deposit list?
robust z-score, knock-down alone: -0.632; activity call: inactive

With PIK3R5, what does the deposit list?
robust z-score, knock-down alone: -1.37; activity call: inactive

What is on record for ACVR1C?
robust z-score, knock-down alone: 0.817; activity call: inactive

With MELK, what does the deposit list?
robust z-score, knock-down alone: 0.529; activity call: inactive

Which result is listed for ERBB4?
robust z-score, knock-down alone: -1.1; activity call: inactive

For ACSL6, how do the results read?
robust z-score, knock-down alone: 0.817; activity call: inactive

How did the screen score AXIN2?
robust z-score, knock-down alone: 0.817; activity call: inactive

With ITPKB, what was measured?
robust z-score, knock-down alone: -0.927; activity call: inactive

With NEK3, what does the deposit list?
robust z-score, knock-down alone: -2.57; activity call: inactive

For EFNA3, what was measured?
robust z-score, knock-down alone: -0.961; activity call: inactive

With SMAD2, what does the deposit list?
robust z-score, knock-down alone: -1.86; activity call: inactive

What did the screen give for DYRK3?
robust z-score, knock-down alone: 0.817; activity call: inactive

How did the screen score SRP72?
robust z-score, knock-down alone: -0.771; activity call: inactive

What did the screen give for STK38L?
robust z-score, knock-down alone: -1.63; activity call: inactive
